Source: PubChem BioAssay AID2685 (National Center for Advancing Translational Sciences (NCATS), 2010)
The list shows a part of the results. These are further read-outs of the screen, such as a control signal, another cell line or another target. No call is given for them. Most of these compounds were active or inconclusive in the main read-out, so they are no random draw. Potencies come from curve fits of mixed quality, noted in brackets.

Experiment: qHTS Assay for Lipid Storage Modulators in Drosophila S3 Cells;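 as to cell number change: cells counted by Cell Tracker Red CMTPX staining in the red channel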
Details: BODIPY lipid droplet fluorescence, 18-24 h; for cell number change: measured here: cell count max response, cells fed with added oleic acid
In short: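 Drosophila S3 cells got compounds at several concentrations plus oleic acid (400 uM solution). Laser-scanning cytometry with 488 nm excitation read lipid droplets at 500-530 nm and cells at 575-640 nm. Percent activity was relative to 20 uM Triacsin C.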

[1] = measured here: cell number channel AC50, cells fed with added oleic acid
[2] = measured here: lipid fluorescence (Fed channel) AC50, cells fed with added oleic acid

Row | SMILES | cell number change [%] | AC50 [1] | AC50 [2]
1 | Cc1ccc(C2C(C#N)=C(N)SC(N)=C2C#N)c(C)c1 | -31.3 | 25.9 µM [falling, single point] | 20.6 µM [falling, single point]
2 | Cc1oc(-c2ccccc2F)nc1CS(=O)(=O)CC(=O)NCCCc1ccccc1 | 64.7 | 29.1 µM [rising, single point] | 7.31 µM [rising, partial curve]
3 | CSc1ccc(CCNC(=O)Cn2ncc3c([nH]c4ccccc43)c2=O)cc1 | -22.1 |  | 11.6 µM [rising, partial curve, poor fit]
4 | Cc1nc(SCC(=O)Nc2cc(S(=O)(=O)N3CCOCC3)ccc2Cl)nc(C)c1C | 22.6 | 0.259 µM [rising, full curve, poor fit] | 0.116 µM [rising, full curve, poor fit]
5 | CCSc1nnc(-c2ccccc2N=Cc2c(C)[nH]n(-c3ccccc3)c2=O)c(=O)[nH]1 | 15.8 |  | 0.731 µM [rising, single point]
6 | Cc1ccc(C)c(NC(=O)c2ccc(N(C)S(C)(=O)=O)cc2)c1 |  |  | 0.146 µM [rising, full curve, poor fit]
7 | Cc1nc2ccccc2cc1C(=O)N/N=C/c1ccccc1[N+](=O)[O-] | 12.8 | 2.31 µM [rising, single point] | 
8 | Cc1cccc(NC(=O)c2onc3c2CCCC3)c1C | -19.2 | 0.116 µM [rising, full curve, poor fit] | 0.103 µM [rising, full curve, poor fit]
9 | C/C(=N\NC(=O)c1ccc(Cl)cc1)c1ccc(Br)s1 | -1.63 | 0.366 µM [rising, single point] | 
10 | Oc1ccc(/C=N/Nc2ccc(C(F)(F)F)cn2)cc1O | -37.6 | 18.4 µM [falling, single point] | 
11 | COc1ccc(/C=C/C(=O)N2CCN(c3ccccn3)CC2)cc1OC |  |  | 23.1 µM [falling, single point]
12 | Cc1cc(C)nc(NS(=O)(=O)c2ccc(NC(=O)C3CC3)cc2)n1 | 18.4 |  | 7.94 µM [rising, partial curve, poor fit]
13 | Fc1ccc(Nc2ncnc3ccccc23)cc1 | -0.293 |  | 
14 | COC(=O)c1ccccc1NC(=O)N1CCN(S(=O)(=O)c2ccc(Cl)cc2)CC1 | -11.1 |  | 1.46 µM [falling, partial curve]
15 | CCSCc1nnc(SCC(=O)Nc2ccc(OC)cc2)n1C | 16 |  | 32.6 µM [rising, single point]
16 | COc1ccc(COC(=O)N/C=C/c2ccco2)cc1 | 24.5 |  | 1.03 µM [falling, single point]
17 | CC(NC(=O)c1ccccc1)c1nc2ccccc2n1Cc1ccccc1F (stereo not given) | -9.91 |  | 23.1 µM [falling, single point]
18 | Cn1cc(C(=O)NCc2cccnc2)c(=O)c2cc(S(=O)(=O)N3CCCCCC3)ccc21 | -11.3 | 6.51 µM [rising, partial curve, poor fit] | 6.51 µM [rising, partial curve, poor fit]
19 | CC(=O)c1ccc(NC(=S)NC(C)CCc2ccccc2)cc1 (stereo not given) | -16.2 |  | 0.731 µM [falling, full curve]
20 | CCc1ncc(C(O)c2cccc(OC)c2OC)n1C (stereo not given) | -110 | 25.9 µM [falling, partial curve] | 5.8 µM [falling, partial curve]
21 | O=C(O)C1CCCNC1 (stereo not given) |  | 0.58 µM [rising, single point] | 0.58 µM [rising, single point]
22 | COc1cc(CN2CCCCCC2)cc(OC)c1 | 3.67 |  | 
23 | COC(=O)c1[nH]c2ccc(C)cc2c1NC(=O)CN1CCCC(C)(C)C1 | 196 | 20.6 µM [rising, single point] | 
24 | CO/N=C/C1CCN(c2ncc(C(F)(F)F)cc2Cl)C1=O (stereo not given) | -44.9 | 14.6 µM [falling, single point] | 
25 | COc1cccc(S(=O)(=O)N2CCN(c3ccccc3F)CC2)c1 | -15.1 |  | 2.31 µM [rising, full curve]
26 | On1c(-c2ccccc2)nc2ccccc21 | 7.74 |  | 1.46 µM [falling, full curve, poor fit]
27 | CCOc1ccc(C(=O)NCC(=O)OCC(=O)Nc2ccccc2OC)cc1 | 8.91 |  | 23.1 µM [falling, partial curve]
28 | COP(=O)(OC)c1nc(-c2cccc3ccccc23)oc1NCCc1ccccc1 | -35.3 |  | 0.461 µM [rising, partial curve]
29 | CN1CCN(c2nc3c(c(=O)n(C)c(=O)n3C)n2Cc2cccc3ccccc23)CC1 | 18.2 |  | 0.58 µM [rising, single point]

Quoted from the listing.
Under AC50 [2], COC(=O)c1ccccc1NC(=O)N1CCN(S(=O)(=O)c2ccc(Cl)cc2)CC1 has the entry 1.46 µM [falling, partial curve]
Under AC50 [2], Cc1oc(-c2ccccc2F)nc1CS(=O)(=O)CC(=O)NCCCc1ccccc1 has the entry 7.31 µM [rising, partial curve]
